No constants are given. Whether binding was seen depends on the method and setting. Some binding calls cover weakened binding; strength is not graded here.
How the values were obtained:
[1] = molecular target: T1, common marmoset γc protein, full length, on HEK-293 cells (common marmoset) (UniProt A5HJL6); assay: flow cytometry, FITC-conjugated hSM-05A on transfected HEK-293 cells
T1 sequence: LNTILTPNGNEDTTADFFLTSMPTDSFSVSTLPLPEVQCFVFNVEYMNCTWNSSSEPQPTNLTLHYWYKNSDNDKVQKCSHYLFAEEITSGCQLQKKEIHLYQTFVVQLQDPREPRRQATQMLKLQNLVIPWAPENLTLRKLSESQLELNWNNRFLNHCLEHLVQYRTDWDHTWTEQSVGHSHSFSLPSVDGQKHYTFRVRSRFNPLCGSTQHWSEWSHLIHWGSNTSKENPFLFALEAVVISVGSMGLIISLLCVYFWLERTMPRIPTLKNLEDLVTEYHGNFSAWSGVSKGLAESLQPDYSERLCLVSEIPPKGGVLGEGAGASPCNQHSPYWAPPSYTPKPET

[2] = molecular target: T1, common marmoset γc protein, full length, on HEK-293 cells (common marmoset); assay: flow cytometry, FITC-labelled hSM-05A (33 nM) on transfected HEK-293 cells
[3] = molecular target: T1, common marmoset γc protein, full length, on HEK-293 cells (common marmoset); assay: flow cytometry, FITC-hSM-05A at 33 nM (5 µg/ml) on HEK-293 cells transfected with full-length common marmoset γc, N=3

Measured: binding

B1: hSM-05A, humanized anti-γc antibody with back-mutation (antibody, V domains shown)
VH: QVQLVQSGAEVLKPGASVKVSCKASGYTFTEYTMHWVKQARGQRLEWIGGIDPYNGGATYNQRFKGKATLTTDTSTSTAYMELRNLRSDDTAVYYCARRRLYYGNALDYWGQGTLVTVSS
VL: DIVMTQSPLSLPVTPGEQASISCRSSQSLVHSNGNTYLHWYLQKPGQSPQLLIYKVSSRFSGVPDRFSGSGSGTDFTLKISRVEAEDVGVYFCSQTTHVPFTFGSGTKLEIKR
binds: all assays above

— patent US20260209365A1, “ANTI-COMMON GAMMA CHAIN PROTEINS AND COMPOSITIONS OF MATTER” (SINOMAB BIOSCIENCE LIMITED, priority 2023, published 2026)
